{"sequences": {"note": "Amino acid sequences for entries named in this document (tags omitted). A change or cut given only in a name is not applied to a line headed by its entry.", "UniProt Q9H7X7": "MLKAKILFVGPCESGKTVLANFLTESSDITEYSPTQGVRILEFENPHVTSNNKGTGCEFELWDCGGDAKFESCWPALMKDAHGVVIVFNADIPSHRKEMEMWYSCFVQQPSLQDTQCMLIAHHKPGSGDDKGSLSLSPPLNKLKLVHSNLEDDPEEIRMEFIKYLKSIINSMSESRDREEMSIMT", "UniProt Q9HCD6": "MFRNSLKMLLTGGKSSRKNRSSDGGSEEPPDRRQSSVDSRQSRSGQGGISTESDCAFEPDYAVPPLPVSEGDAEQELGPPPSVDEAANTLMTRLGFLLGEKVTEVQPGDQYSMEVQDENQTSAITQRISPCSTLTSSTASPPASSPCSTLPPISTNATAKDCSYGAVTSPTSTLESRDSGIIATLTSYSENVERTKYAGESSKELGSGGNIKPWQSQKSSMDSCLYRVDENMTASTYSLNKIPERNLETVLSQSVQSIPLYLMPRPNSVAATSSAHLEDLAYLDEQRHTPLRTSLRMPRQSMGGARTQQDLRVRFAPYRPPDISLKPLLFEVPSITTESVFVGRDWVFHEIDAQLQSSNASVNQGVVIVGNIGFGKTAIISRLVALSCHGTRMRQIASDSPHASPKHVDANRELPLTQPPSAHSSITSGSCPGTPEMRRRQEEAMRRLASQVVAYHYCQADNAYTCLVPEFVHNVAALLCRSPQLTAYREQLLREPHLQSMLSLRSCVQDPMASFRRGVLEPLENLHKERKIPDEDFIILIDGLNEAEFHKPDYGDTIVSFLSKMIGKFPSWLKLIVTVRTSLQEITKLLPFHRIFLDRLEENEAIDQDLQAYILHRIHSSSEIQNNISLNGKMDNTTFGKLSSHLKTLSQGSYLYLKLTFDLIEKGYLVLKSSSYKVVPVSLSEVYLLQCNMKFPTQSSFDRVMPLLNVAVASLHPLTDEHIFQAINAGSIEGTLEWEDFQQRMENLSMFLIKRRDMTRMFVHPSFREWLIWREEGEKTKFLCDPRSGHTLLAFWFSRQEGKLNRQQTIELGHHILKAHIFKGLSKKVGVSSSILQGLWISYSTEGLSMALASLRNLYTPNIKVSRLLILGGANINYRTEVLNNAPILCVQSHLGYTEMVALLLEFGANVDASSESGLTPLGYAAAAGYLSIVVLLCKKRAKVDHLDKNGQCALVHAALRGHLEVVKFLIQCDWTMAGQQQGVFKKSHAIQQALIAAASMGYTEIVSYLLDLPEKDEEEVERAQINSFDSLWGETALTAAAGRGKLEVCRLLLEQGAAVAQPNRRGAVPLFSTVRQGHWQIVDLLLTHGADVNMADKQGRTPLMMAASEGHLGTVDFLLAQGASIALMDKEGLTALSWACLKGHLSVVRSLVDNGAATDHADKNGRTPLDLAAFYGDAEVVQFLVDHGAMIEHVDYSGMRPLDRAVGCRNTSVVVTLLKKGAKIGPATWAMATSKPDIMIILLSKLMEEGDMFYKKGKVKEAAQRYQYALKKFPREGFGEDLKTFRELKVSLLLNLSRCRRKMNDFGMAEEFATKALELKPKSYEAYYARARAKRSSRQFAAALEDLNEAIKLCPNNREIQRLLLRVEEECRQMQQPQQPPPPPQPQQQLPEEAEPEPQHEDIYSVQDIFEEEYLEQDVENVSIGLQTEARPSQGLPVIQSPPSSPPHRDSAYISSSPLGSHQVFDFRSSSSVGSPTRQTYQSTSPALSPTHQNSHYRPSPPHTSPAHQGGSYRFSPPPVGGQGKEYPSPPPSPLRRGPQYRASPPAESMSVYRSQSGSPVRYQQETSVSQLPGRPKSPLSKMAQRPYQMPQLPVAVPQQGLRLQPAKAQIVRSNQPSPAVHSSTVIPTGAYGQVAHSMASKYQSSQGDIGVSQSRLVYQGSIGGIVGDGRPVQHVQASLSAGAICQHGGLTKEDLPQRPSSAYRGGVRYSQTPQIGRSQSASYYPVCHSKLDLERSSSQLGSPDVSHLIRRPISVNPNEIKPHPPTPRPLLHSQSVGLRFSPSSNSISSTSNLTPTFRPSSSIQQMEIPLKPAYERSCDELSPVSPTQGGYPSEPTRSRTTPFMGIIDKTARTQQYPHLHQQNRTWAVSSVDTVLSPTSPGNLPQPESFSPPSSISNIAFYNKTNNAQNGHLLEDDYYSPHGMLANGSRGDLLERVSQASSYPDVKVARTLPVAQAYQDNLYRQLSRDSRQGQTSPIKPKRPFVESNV", "UniProt Q9H875": "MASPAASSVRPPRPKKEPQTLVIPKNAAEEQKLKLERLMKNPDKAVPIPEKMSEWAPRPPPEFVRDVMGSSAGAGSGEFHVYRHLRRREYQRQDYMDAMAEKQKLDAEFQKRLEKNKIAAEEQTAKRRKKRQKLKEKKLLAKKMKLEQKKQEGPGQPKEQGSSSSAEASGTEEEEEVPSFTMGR", "UniProt Q9H4Z3": "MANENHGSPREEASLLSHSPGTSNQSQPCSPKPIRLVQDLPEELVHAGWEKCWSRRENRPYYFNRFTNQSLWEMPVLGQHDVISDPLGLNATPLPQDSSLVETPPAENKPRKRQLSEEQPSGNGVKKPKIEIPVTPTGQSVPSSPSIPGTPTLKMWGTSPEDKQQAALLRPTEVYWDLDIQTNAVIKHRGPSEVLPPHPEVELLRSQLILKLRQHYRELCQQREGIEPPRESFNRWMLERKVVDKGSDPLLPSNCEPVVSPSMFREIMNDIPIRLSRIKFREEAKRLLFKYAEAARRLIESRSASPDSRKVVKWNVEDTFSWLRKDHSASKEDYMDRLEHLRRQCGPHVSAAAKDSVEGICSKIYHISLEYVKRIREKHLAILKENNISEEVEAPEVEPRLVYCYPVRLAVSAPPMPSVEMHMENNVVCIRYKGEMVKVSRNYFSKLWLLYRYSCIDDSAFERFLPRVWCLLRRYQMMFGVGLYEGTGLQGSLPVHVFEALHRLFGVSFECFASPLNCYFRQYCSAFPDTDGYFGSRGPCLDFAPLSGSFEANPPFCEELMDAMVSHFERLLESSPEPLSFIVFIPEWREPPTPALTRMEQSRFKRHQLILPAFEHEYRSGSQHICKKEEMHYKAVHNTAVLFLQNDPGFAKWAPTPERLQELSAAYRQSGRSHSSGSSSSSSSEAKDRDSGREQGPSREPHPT", "UniProt Q9H3F6": "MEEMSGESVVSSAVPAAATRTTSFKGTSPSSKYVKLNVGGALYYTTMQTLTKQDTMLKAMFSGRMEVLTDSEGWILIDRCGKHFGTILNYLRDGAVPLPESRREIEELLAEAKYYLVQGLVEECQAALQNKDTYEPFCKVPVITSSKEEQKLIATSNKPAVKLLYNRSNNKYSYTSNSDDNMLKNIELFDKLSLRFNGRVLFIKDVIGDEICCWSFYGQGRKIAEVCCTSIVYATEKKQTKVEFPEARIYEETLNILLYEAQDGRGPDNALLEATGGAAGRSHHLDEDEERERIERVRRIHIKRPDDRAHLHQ", "UniProt Q9H4M7": "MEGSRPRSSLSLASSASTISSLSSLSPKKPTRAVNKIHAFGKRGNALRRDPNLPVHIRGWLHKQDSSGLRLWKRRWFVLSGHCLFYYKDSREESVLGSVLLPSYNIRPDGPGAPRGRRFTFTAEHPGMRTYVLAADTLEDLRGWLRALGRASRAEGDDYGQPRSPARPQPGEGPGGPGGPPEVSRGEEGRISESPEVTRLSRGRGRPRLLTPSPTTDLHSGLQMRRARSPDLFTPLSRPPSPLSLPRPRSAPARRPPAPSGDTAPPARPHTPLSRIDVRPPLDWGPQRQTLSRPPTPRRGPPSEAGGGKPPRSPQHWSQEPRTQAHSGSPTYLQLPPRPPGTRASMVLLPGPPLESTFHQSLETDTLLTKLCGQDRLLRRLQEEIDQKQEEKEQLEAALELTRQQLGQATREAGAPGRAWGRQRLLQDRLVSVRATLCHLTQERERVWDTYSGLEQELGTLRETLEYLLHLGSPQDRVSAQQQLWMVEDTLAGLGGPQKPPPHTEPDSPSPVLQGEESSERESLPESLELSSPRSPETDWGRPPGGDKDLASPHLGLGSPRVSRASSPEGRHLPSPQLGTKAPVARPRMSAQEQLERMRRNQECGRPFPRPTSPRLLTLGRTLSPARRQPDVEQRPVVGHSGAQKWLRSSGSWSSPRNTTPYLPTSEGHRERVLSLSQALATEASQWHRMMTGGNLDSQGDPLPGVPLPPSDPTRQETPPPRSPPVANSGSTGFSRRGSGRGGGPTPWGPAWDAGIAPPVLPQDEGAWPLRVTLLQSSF", "UniProt Q9HA47": "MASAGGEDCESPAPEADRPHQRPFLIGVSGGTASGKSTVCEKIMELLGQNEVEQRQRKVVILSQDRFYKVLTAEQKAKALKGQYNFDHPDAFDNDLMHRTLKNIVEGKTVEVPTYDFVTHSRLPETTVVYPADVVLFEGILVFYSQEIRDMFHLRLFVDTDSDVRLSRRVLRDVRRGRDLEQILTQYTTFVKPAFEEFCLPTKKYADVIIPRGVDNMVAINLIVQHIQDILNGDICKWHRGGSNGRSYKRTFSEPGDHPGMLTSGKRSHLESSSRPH", "UniProt Q9H707": "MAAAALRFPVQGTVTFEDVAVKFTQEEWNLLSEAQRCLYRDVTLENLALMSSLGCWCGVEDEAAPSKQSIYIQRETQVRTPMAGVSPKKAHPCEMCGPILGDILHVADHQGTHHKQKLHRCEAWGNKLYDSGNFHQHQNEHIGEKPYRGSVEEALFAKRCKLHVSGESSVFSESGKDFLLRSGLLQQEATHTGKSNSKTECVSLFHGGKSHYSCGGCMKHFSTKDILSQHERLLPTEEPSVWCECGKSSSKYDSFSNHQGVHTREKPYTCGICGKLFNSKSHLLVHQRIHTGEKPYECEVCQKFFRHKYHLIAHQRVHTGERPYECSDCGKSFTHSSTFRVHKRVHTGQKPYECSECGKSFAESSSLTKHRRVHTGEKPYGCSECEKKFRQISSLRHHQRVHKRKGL", "UniProt Q9HB09": "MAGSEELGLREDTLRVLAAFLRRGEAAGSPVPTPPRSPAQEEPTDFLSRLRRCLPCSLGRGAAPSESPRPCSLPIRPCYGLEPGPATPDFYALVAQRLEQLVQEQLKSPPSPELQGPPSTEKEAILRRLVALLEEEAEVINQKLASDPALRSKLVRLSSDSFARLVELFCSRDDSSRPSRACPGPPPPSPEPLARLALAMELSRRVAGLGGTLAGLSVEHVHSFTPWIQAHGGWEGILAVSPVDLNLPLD", "UniProt Q9HAV0, whole entry": "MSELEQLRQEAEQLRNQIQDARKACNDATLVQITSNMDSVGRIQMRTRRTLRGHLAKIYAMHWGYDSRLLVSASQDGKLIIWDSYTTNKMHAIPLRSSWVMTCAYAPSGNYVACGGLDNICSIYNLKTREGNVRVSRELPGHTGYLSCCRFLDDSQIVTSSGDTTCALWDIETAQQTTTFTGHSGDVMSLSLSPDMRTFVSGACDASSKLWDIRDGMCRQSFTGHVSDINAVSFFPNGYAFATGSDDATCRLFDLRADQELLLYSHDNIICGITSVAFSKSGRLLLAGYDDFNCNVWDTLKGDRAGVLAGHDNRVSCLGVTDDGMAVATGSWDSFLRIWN", "UniProt Q9H270": "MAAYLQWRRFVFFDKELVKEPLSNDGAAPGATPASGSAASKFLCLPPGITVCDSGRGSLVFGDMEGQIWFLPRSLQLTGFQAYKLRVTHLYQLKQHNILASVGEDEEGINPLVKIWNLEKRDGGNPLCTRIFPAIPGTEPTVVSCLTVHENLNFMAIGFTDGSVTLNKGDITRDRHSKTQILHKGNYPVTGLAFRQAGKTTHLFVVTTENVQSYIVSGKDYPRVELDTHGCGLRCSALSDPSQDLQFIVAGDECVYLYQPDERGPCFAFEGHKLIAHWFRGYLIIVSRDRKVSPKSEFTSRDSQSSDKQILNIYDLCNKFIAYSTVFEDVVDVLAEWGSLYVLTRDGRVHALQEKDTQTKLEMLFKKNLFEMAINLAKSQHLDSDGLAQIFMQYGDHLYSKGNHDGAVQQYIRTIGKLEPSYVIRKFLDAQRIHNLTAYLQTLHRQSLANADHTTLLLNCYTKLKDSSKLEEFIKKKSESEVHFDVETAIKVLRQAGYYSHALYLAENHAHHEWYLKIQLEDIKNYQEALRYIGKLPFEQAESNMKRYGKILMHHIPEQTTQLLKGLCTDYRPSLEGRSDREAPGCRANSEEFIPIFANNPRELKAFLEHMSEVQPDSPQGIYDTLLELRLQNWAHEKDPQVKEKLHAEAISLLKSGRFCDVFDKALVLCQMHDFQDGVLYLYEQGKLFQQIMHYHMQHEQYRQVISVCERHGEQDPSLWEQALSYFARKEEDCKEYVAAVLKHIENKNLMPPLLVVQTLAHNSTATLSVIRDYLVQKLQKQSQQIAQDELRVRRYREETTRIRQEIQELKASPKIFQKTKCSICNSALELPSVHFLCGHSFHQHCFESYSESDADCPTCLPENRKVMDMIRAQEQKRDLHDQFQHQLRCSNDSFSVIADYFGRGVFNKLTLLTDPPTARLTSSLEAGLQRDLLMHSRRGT", "UniProt Q9H773": "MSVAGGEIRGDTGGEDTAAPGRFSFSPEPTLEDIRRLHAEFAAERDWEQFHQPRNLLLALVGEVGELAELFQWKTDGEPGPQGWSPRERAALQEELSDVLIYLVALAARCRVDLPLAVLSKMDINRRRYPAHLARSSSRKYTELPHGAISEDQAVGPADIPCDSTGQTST"}, "source": "the supplement of paper PMC12819154", "about": "“High-throughput peptide-centric local stability assay extends protein–ligand identification to membrane proteins, tissues and bacteria” (Nature Structural & Molecular Biology, 2025)", "note": "Some of the results follow. Small differences around the control level are noise."}
{"compound": "Cc1nc(Nc2ncc(C(=O)Nc3c(C)cccc3Cl)s2)cc(N2CCN(CCO)CC2)n1 [dasatinib]", "experiment": "log2 fold change of tryptic peptide abundance, ligand vs vehicle (limited proteolysis) (log2 ratio); higher = more trypsin-susceptible (destabilized)", "details": "ligand concentration: 5 uM; sample: K562 cleared lysate"}
{"target": "UniProt Q9H6Q4 (peptide sequence: LLHTQYHAVEK, peptide start residue: 457)", "log2 fold change": 0.342}
{"target": "TUT1 (peptide sequence: HGAPGEEGQPSHAALAER, peptide start residue: 721) (UniProt Q9H6E5)", "log2 fold change": 0.168}
{"target": "NEK6 (peptide sequence: KVQIFEMMDAK, peptide start residue: 75) (UniProt Q9HC98)", "log2 fold change": 0.796}
{"target": "UniProt Q9H7X7 (peptide sequence: LVHSNLEDDPEEIR, peptide start residue: 145)", "log2 fold change": 0.0997}
{"target": "TANC2 (peptide sequence: YSQTPQIGR, peptide start residue: 1711) (UniProt Q9HCD6)", "log2 fold change": 0.463}
{"target": "PRKRIP1 (peptide sequence: MSEWAPRPPPEFVR, peptide start residue: 52) (UniProt Q9H875)", "log2 fold change": 0.135}
{"target": "PCIF1 (peptide sequence: EGIEPPRESFNR, peptide start residue: 224) (UniProt Q9H4Z3)", "log2 fold change": 0.406}
{"target": "TAOK3 (peptide sequence: QLKHPNTIEYK, peptide start residue: 78) (UniProt Q9H2K8)", "log2 fold change": -1.06}
{"target": "UniProt Q9H7Z6 (peptide sequence: YLSELAEQPERK, peptide start residue: 126)", "log2 fold change": 0.113}
{"target": "ZNF644 (peptide sequence: ASQHQVLFLLSDVAHAK, peptide start residue: 169) (UniProt Q9H582)", "log2 fold change": -0.339}
{"target": "CLSPN (peptide sequence: GPSFMTSPSPK, peptide start residue: 1308) (UniProt Q9HAW4)", "log2 fold change": -0.881}
{"target": "UniProt Q9H6R7 (peptide sequence: HSSTPDHTSTLEPPR, peptide start residue: 527)", "log2 fold change": -0.524}
{"target": "KCTD10 (peptide sequence: SHHLDEDEERER, peptide start residue: 282) (UniProt Q9H3F6)", "log2 fold change": -0.159}
{"target": "UniProt Q9H4M7 (peptide sequence: RGPPSEAGGGKPPR, peptide start residue: 299)", "log2 fold change": -0.41}
{"target": "UCK1 (peptide sequence: VVILSQDR, peptide start residue: 59) (UniProt Q9HA47)", "log2 fold change": 0.299}
{"target": "UniProt Q9H8G2 (peptide sequence: RSTDSSSVSGSLQQETK, peptide start residue: 88)", "log2 fold change": 0.527}
{"target": "ZNF552 (peptide sequence: SFTHSSTFR, peptide start residue: 332) (UniProt Q9H707)", "log2 fold change": 0.561}
{"target": "BCL2L12 (peptide sequence: LEQLVQEQLK, peptide start residue: 182) (UniProt Q9HB09)", "log2 fold change": 0.0822}
{"target": "GNB4 (peptide sequence: TFVSGACDASSK, peptide start residue: 198) (UniProt Q9HAV0)", "log2 fold change": 0.247}
{"target": "VPS11 (peptide sequence: IRQEIQELK, peptide start residue: 803) (UniProt Q9H270)", "log2 fold change": -0.511}
{"target": "RANBP3 (peptide sequence: VLSPPKLNEVSSDANR, peptide start residue: 331) (UniProt Q9H6Z4)", "log2 fold change": -0.295}
{"target": "TBC1D17 (peptide sequence: MEGAGYRVVFEKGGVYLHTSAK, peptide start residue: 1) (UniProt Q9HA65)", "log2 fold change": 0.277}
{"target": "SENP2 (peptide sequence: TKGWGEEQNHGVK, peptide start residue: 252) (UniProt Q9HC62)", "log2 fold change": 0.273}
{"target": "MRPL44 (peptide sequence: ELFEMWK, peptide start residue: 227) (UniProt Q9H9J2)", "log2 fold change": -0.0749}
{"target": "TUBB1 (peptide sequence: EIVHIQIGQCGNQIGAK, peptide start residue: 3) (UniProt Q9H4B7)", "log2 fold change": 0.27}
{"target": "UniProt Q9H773 (peptide sequence: CRVDLPLAVLSK, peptide start residue: 110)", "log2 fold change": -0.16}
{"target": "DHX35 (peptide sequence: SNLAPVILQLK, peptide start residue: 425) (UniProt Q9H5Z1)", "log2 fold change": -0.573}
{"target": "FANCE (peptide sequence: GWEPFDWGR, peptide start residue: 54) (UniProt Q9HB96)", "log2 fold change": -0.212}
